Reference: patent US6576464B2, “Methods for providing differentiated stem cells” (Geron Corporation, priority 2000, dated 2003)
At least one structure is not confirmed: it was looked up by name or label, or the drawing left a doubt.

Test system: hTERT
Assay: hTERT expression by RT-PCR after exposure to differentiation factors
Assay type: cell-based, human
Settings: after exposure of hES cells to the factor
Method: For radioactive relative quantification of individual gene products, QuantumRNA™ Alternate18S Internal Standard primers (Ambion, Austin Tex., USA) were employed according to the manufacturer's instructions. Briefly, the linear range of amplification of a particular primer pair was determined, then coamplified with the appropriate mixture of alternare18S primers:competimers to yield PCR products with coinciding linear ranges. Before addition of AmpliTaq™ (Roche) to PCR reactions, the enzyme was pre-incubated with the TaqStart™ antibody (ProMega) according to manufacturer's instructions. Radioactive PCR reactions were analyzed on 5% non-denaturing polyacrylamide gels, dried, and exposed to phosphoimage screens (Molecular Dynamics) for 1 hour. Screens were scanned with a Molecular Dynamics Storm 860 and band intensities were quantified using ImageQuant™ software. Results are expressed as the ratio of radioactivity incorporated into the hTERT or OCT-4 band, standardized to the radioactivity incorporated into the 18s band.
Primers and amplification conditions for particular markers are as follows.

CC1=C(/C=C/C(C)=C/C=C/C(C)=C/C(=O)O)C(C)(C)CCC1 [retinoic acid]
expression of hTERT: markedly decreased
